Measured values published in publication PMC9054915 (Cancer Chemotherapy and Pharmacology, 2022).

Test: MDCK permeability
Details: dog
Description: The physiochemical and ADME parameters used for the development of the initial PBPK model are summarized Table S1. […] The volume of distribution at steady state (Vss) was obtained from the clinical absolute bioavailability study (ClinicalTrials.gov Identifier: NCT02390492). A tissue to plasma partition coefficient (Kp) scalar was applied to match the predicted Vss (predicted with in Simcyp using Method 3, Rodgers et al. + ion membrane permeability) to the observed value. The IV clearance determined in the clinical absolute bioavailability study was used (ClinicalTrials.gov Identifier: NCT02390492). […] The CYP3A4 inhibition parameters for competitive inhibition and TDI determined using in vitro assays (Data on file) were incorporated into the model.

SMILES: CC(C)NCC(O)COc1ccc(CC(N)=O)cc1 (stereo not shown) [atenolol]
- Papp: 0.1 ×10⁻⁶ cm/s
